In PMC11332147:

Tested on: UmuD (Escherichia coli)
Experiment: EMSA
Conditions: UmuD alone; EMSA: LI-COR Odyssey binding buffer (10x = 100 mM Tris, 500 mM KCl, 10 mM DTT, pH 7.5), 25 mM DTT, 1 ug/uL poly(dI-dC), 200 fmol probe per 20 uL; recombinant protein; label: 5' IRDye700 on both strands

TCGTCAACTTGAAAATGTAACTTTTTCAAGTTACATT (double strand) [WT 37 bp UmuDAb operator probe]
binding result: no binding

Construct, isoform or probe ends are uncertain for at least one entry. No signal at the amounts used counts as a negative.
